Assay results reported in patent publication US20230285589A1, “LIPOSOME COMPLEX FOR CANCER TREATMENT, COMPRISING NOVEL CD47 BINDER AND POLYNUCLEOTIDE” (priority 2020, published 2023).
Results are given in words; binding and its absence hold for the method and conditions named. Some binding calls cover weakened binding; strength is not graded here.

Chains of the proteins cited; added tags and fusions are not shown. Residues count along the entry.
UniProt Q08722, residues 19-139: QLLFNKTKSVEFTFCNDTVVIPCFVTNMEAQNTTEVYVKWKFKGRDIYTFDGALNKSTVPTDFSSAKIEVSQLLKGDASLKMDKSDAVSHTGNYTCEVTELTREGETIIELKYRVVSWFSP

B1: SV4 (designed binder)
chain: MEEELQIIQPDLSVSVAAGESAILHCTITSLFPVGPIQWFRGAGPARVLIYNQRQGPFPRVTTVSETTKRENMDFSISISNITPADAGTYYCIKFRKGSPDTEFLSGAGTELSVRAKPS
B2: SV4-DSPE (DSPE-conjugated SV4) (designed binder)
chain: B1 chain

Target: recombinant CD47 protein (UniProt Q08722)
Assay: SPR; recombinant CD47 on CM5 chip

Binder	binding
B1	binds
B2	binds
